The source of these data is paper PMC3579733.

No constants are given. Whether binding was seen depends on the method and setting. In cells and extracts the contact can be indirect. These calls come from enrichment with a bait or labelling near it, and not all partners need be listed. For part of these data: No binding means not detected with the bait.

For experiment [1], the target named is T1, CheY (Halobacterium salinarum R1 (DSM 671)) (UniProt B0R4K1).
T1 sequence: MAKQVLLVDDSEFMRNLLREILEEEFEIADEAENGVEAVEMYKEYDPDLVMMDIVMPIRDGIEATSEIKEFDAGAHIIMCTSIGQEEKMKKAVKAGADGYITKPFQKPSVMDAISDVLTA
Kind of experiment: affinity purification with mass spectrometry; one-step and two-step bait fishing taken together (final data set; both methods applied to all baits); the place does not tell which of the two gave the result.

For experiment [2], the target named is T2, CheW2 (Halobacterium salinarum R1 (DSM 671)) (UniProt Q9HQY8).
T2 sequence: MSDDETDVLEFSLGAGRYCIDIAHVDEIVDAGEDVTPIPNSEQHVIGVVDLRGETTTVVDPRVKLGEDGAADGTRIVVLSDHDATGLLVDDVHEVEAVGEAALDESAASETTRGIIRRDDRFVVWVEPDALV
Described as above.

The target in experiment [3] is T3, CheR (Halobacterium salinarum R1 (DSM 671)) (UniProt B0R4J5).
T3 sequence: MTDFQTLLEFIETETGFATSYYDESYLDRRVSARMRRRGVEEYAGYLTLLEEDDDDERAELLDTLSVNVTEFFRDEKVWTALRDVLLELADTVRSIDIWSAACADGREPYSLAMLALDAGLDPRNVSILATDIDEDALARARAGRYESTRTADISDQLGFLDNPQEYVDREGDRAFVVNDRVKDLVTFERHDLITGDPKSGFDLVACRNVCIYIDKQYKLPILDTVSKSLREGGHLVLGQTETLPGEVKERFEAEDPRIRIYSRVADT
Described as above.

The target in experiment [4] is T4, CheA (Halobacterium salinarum R1 (DSM 671)) (UniProt B0R4J9).
T4 sequence: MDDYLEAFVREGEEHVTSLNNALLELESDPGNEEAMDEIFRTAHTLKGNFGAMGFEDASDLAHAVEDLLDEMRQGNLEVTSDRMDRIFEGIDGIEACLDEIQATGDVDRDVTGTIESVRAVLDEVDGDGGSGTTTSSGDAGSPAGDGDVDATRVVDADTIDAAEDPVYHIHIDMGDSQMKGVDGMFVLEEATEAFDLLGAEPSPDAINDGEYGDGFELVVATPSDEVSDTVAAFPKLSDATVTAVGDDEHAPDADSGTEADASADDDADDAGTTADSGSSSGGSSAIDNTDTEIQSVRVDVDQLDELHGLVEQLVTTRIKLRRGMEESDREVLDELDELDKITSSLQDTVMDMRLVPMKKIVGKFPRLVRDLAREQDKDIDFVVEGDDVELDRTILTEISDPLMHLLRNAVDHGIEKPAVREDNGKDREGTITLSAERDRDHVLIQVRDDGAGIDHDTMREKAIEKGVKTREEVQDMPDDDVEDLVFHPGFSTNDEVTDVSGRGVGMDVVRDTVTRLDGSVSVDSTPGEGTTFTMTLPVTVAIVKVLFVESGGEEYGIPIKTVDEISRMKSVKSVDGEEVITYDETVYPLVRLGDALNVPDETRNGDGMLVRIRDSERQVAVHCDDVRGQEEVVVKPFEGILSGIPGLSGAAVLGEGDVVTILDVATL
The description is as above.

Experiment [5] addresses T5, CheW1 (Halobacterium salinarum R1 (DSM 671)) (UniProt Q9HQW5).
T5 sequence: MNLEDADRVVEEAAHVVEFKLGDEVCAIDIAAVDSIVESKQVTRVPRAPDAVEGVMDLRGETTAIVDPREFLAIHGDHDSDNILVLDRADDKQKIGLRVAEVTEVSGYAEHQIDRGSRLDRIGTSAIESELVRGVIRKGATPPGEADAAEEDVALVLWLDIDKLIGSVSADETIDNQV
The description is as above.

Experiment [6] concerns the target T6, CheF1 (Halobacterium salinarum R1 (DSM 671)) (UniProt B0R4J3).
T6 sequence: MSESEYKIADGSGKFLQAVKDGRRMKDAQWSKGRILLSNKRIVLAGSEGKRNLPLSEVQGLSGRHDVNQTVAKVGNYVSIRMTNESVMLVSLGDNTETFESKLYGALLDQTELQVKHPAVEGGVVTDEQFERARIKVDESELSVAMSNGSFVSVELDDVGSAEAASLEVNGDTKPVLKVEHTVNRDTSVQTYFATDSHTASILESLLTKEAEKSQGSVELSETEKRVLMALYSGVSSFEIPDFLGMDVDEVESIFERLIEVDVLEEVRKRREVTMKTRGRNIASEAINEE
The description is as above.

Experiment [7] deals with T7, CheC1 (Halobacterium salinarum R1 (DSM 671)) (UniProt B0R4J8).
T7 sequence: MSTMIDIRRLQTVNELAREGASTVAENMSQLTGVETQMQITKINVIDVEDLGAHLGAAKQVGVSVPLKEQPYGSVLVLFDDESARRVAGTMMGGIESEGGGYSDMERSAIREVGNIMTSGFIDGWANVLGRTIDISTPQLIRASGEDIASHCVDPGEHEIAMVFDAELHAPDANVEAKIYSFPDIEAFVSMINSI
Described as above.

In experiment [8] the target is T8, CheC2 (Halobacterium salinarum R1 (DSM 671)) (UniProt Q9HPJ6).
T8 sequence: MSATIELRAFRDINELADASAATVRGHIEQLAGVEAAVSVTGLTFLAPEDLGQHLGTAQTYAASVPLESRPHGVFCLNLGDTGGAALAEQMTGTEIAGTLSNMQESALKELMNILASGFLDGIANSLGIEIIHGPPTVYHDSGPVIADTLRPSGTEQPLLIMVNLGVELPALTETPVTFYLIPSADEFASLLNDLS
The experiment is described as above.

Experiment [9] deals with T9, CheF2 (Halobacterium salinarum R1 (DSM 671)) (UniProt B0R4J4).
T9 sequence: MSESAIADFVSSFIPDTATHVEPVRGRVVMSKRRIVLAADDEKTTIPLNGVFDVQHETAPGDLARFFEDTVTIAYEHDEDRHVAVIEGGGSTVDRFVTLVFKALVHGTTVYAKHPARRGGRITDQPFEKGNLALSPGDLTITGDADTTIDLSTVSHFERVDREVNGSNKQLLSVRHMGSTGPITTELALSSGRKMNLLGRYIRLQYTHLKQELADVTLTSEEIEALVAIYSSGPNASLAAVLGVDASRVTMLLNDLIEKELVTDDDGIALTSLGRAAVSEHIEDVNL
The experiment is described as above.

Experiment [10] addresses T10, CheB (Halobacterium salinarum R1 (DSM 671)) (UniProt B0R4K0).
T10 sequence: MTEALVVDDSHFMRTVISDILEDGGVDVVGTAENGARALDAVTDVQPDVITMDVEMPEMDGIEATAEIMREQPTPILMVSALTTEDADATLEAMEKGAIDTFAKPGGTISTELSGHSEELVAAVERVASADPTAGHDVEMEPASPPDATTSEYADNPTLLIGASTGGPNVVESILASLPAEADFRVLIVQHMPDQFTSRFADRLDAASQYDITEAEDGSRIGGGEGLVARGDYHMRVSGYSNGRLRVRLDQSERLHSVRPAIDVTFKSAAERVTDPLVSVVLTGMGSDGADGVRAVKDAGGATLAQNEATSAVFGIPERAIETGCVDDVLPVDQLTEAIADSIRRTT
The experiment is described as above.

Experiment [11] concerns the target T4, CheA (Halobacterium salinarum R1 (DSM 671)). Kind of experiment: affinity purification with mass spectrometry; one-step bait fishing: lysates of the bait-CBD strain (13C6-leucine) and of the bait-control strain without CBD (12C6-leucine) mixed, one cellulose column, CFE buffer (3 M KCl, 1 M NaCl, 400 mM NH4Cl, 40 mM MgCl2, 10 mM Tris/HCl pH 7.5), washes with 0.5% NP40, room temperature; SILAC, association score > 7 counts as interaction.

Experiment [12] concerns the target OE4643R (Halobacterium salinarum R1 (DSM 671)). Kind of experiment: affinity purification with mass spectrometry; one-step and two-step bait fishing taken together (final data set; both methods applied to all baits); the place does not tell which of the two gave the result.
Experiment [13] has as its target T4, CheA (Halobacterium salinarum R1 (DSM 671)). Kind of experiment: affinity purification with mass spectrometry; two-step bait fishing: bait-CBD bound to a cellulose column and stringently washed (CFE + 1% NP40 + 20% ethylene glycol), then incubated with lysate of wild type cells (12C6-leucine); plain CBD column with 13C6-leucine lysate as control; SILAC, association score > 7 counts as interaction; only the target purified.

The target of experiment [14] is CheD (Halobacterium salinarum R1 (DSM 671)). Nature of the experiment: affinity purification with mass spectrometry; one-step and two-step bait fishing taken together (final data set; both methods applied to all baits); the place does not tell which of the two gave the result.
For experiment [15], the target named is CheC3 (Halobacterium salinarum R1 (DSM 671)). The experiment is described as above.

As to Htr12 (receptor), the binding result is on record as “no binding” in [1]; “no binding” in [2]; “binds” in experiment [3]; “no binding” in [4]; “no binding” in experiment [5].

As for Htr9 (receptor), the binding entry in experiment [6], in experiment [1], in experiment [7], in experiment [8], in [2] and in [3] was “no binding” throughout. The binding entry in experiment [9], in experiment [4], in [5] and in experiment [10] was “no binding” each time.

HemAT (receptor): the binding result in experiment [6], in [1], in experiment [7], in experiment [8], in [2] and in [3] was “no binding” each time. Also, the binding entry in experiment [9], in experiment [4], in experiment [5] and in experiment [10] was “no binding” in each case.

In the case of “CheC3 (Halobacterium salinarum R1 (DSM 671))”, the binding entry in experiment [7] and in experiment [8] was “no binding” in each case.

B1: CheW1 (protein, UniProt Q9HQW5 1-178)
chain: T5 sequence
Consider B1, for which the binding entry in [11] is “binds”; in [1], “binds”; in experiment [12], “no binding”; in experiment [13], “binds”.

B2: CheC1 (protein, UniProt B0R4J8 1-195)
chain: T7 sequence
As to B2, the binding result in experiment [6] is given as “no binding”; in [8] it was “binds”; in experiment [14] it was “no binding”; in experiment [9], “no binding”; in experiment [10] it was “binds”.

B3: CheY (protein, UniProt B0R4K1 1-120)
chain: T1 sequence
B3: the binding result in experiment [7], in [8] and in experiment [15] was “no binding” in each case.
